Reference: patent US20110053865A1
Results are given in words; binding and its absence hold for the method and conditions named. Binding can be weak; no strength is given.

B1: P23IL119A3V16-35GS-81G2V11-HSA (bispecific antibody, not shown: large carriers)
chain: EVQLLESGGGLVQPGGSLRLSCAASGRIFSLPASGNIFNLLTIAWYRQAPGKGRELVATINSGSRTYYADSVKGRFTISRDNSKKTLYLQMNSLRPEDTAVYYCQTSGSGSPNFWGQGTLVTVSSGGGGSGGGGSGGGGSGGGGSGGGGSGGGGSGGGGSEVQLLESGGGLVQPGGSLRLSCAASGLPFSTKSMGWFRQAPGKGREFVSRISPGGTSRYYGDFVKGRFTISRDNSKNTLYLQMNSLRAEDTAVYYCASGERSTYIGSNYYRTNEYDYWGQGTLVTVSS
B2: P23IL119A3V16-35GS-81G2V11-GGGC-PEG40 linear (bispecific antibody)
chain: EVQLLESGGGLVQPGGSLRLSCAASGRIFSLPASGNIFNLLTIAWYRQAPGKGRELVATINSGSRTYYADSVKGRFTISRDNSKKTLYLQMNSLRPEDTAVYYCQTSGSGSPNFWGQGTLVTVSSGGGGSGGGGSGGGGSGGGGSGGGGSGGGGSGGGGSEVQLLESGGGLVQPGGSLRLSCAASGLPFSTKSMGWFRQAPGKGREFVSRISPGGTSRYYGDFVKGRFTISRDNSKNTLYLQMNSLRAEDTAVYYCASGERSTYIGSNYYRTNEYDYWGQGTLVTVSSGGGC
modifications: linear mPEG40 (maleimide) on the C-terminal Cys of GGGC

Molecular target: marmoset IL-23 (marmoset)
Assay: inhibition ELISA

Binder | binding
B1 | binds
B2 | binds
